Source: the supplement of paper PMC8256030
“And” between values parts separate entries of the source, which are not always exact repeats. Equal values may be shown once. Where a name gives a salt, the structure may show the parent alone. Some of the results follow. Repeats in this data set agree poorly, so a single value says little.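 HEK293T cells were given each compound shortly before transfection with a reporter in which red mCherry is followed by the SARS-CoV-2 frameshift element and then GFP in the −1 frame, so GFP appears only after frameshifting.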

Legend:
[1] = test system: SARS-CoV-2 -1 PRF reporter mCherry-FSE-GFP(-1); test: mCherry (red) intensity as percent of control; higher = higher upstream reporter expression; conditions: 10 µM; 24 h; HEK293T
[2] = test system: SARS-CoV-2 -1 PRF reporter mCherry-FSE-GFP(-1); test: percent effect, decrease of GFP/mCherry ratio (-1 PRF reporter) relative to controls; higher = stronger frameshift inhibition; conditions: 10 µM; 24 h; HEK293T

Row | SMILES | mCherry [1] | percent effect [2]
1 | CN(C)CCC=C1c2ccccc2C(C)(C)c2ccccc21 [melitracen] | 97.9% | 2.02%
2 | CC[C@@]1(O)C(=O)OCc2c1cc1n(c2=O)Cc2cc3c(CN(C)C)c(O)ccc3nc2-1 [Topotecan·HCl] | 21% | -2.02%
3 | Cc1cccc(C)c1OCC(C)N (stereo unspecified) | 118% | 1.02%
4 | CN1C(C(=O)Nc2ccccn2)=C(O)c2ccccc2S1(=O)=O [Piroxicam] | 109% | 2.25%
5 | Cc1cc(NS(=O)(=O)c2ccc(N)cc2)no1 [Sulfamethoxazole] | 41.2% | -3.14%
6 | CC(C)OC(=O)c1cc2c(OCC(O)CNC(C)(C)C)cccc2[nH]1 (stereo unspecified) [carpindolol] | 102% | 1.2%
7 | CC(C)(C)C(=O)C(Oc1ccc(Cl)cc1)n1ccnc1 (stereo unspecified) [climbazole] | 93.4% and 88.3% | -4.19% and 0.822%
8 | Nc1nc(=O)c2c([nH]1)NC[C@@H](CNc1ccc(C(=O)N[C@@H](CCC(=O)O)C(=O)O)cc1)N2 [Tetrahydrofolate] | 97.2% | -2.34%
9 | CCc1nc(N)nc(N)c1-c1ccc(Cl)cc1 [pyrimethamine] | 104% | -4.94%
10 | Cc1cccc(N2CC(CO)OC2=O)c1 (stereo unspecified) [Toloxatone] | 112% | -0.752%
11 | Nc1nc(=O)c2c([nH]1)NCC(CNc1ccc(C(=O)N[C@@H](CCC(=O)O)C(=O)O)cc1)N2C=O (stereo partly specified) [Leucovorin] | 78.7% | -3.42%
12 | Cn1c(C#N)ccc1-c1ccc2c(c1)C(C)(C)OC(=S)N2 [tanaproget] | 95.7% | -10.9%
13 | CC(C)(CO)[C@@H](O)C(=O)NCCCO [dexpanthenol] | 87% | -2.1%
14 | CCCC(CCC)C(=O)O [valproate semisodium] | 103% | -4.52%
15 | CC(=O)[C@@]1(O)CC[C@H]2[C@@H]3C=C(Cl)C4=CC(=O)[C@@H]5C[C@@H]5[C@]4(C)[C@H]3CC[C@@]21C | 101% | 0.783%
16 | CCn1cc(C(=O)O)c(=O)c2ccc(-c3ccncc3)cc21 [rosoxacin] | 97.2% | 0.793%
17 | CCN(CC)C(=O)c1cccc(C)c1 [diethyltoluamide] | 85% | -8.72%

Row | SMILES | mCherry [1] | percent effect [2]
18 | CCCc1ncc(C[n+]2ccccc2C)c(N)n1 [amprolium] | 111% | 6.2%
19 | C=CCNc1nc(NCC=C)nc(N2CCN(C(c3ccc(F)cc3)c3ccc(F)cc3)CC2)n1 [almitrine] | 99.7% | -7.45%
20 | OC(CCN1CCCCC1)(c1ccccc1)c1ccccc1 [pridinol] | 108% | 0.043%
21 | C[C@@H]1C[C@H]2[C@@H]3C[C@H](F)C4=CC(=O)C=C[C@]4(C)[C@@]3(Cl)[C@@H](O)C[C@]2(C)[C@H]1C(=O)CO [clocortolone] | 46.7% | 10.8%
22 | Cc1cc(=O)c(C(=O)N[C@@H](C(=O)N[C@@H]2C(=O)N3C(C(=O)O)=C(CSc4nnnn4C)CS[C@H]23)c2ccc(O)cc2)c[nH]1 | 104% | -4.01%
23 | CN1CCN(CCCN2c3ccccc3Sc3ccc(S(=O)(=O)N(C)C)cc32)CC1 [thioproperazine] | 114% | -2.12%
24 | CCOc1nc2cccc(C(=O)O)c2n1Cc1ccc(-c2ccccc2-c2nnn[nH]2)cc1 [candesartan] | 104% | -2.69%
25 | COC(=O)N/N=C/c1c[n+]([O-])c2ccccc2[n+]1[O-] [Carbadox] | 113% | -4.18%
26 | CCCCCC(=O)O[C@]1(C(C)=O)CC[C@H]2[C@@H]3CCC4=CC(=O)CC[C@@H]4[C@H]3CC[C@@]21C [gestonorone caproate] | 82.1% | -3.23%
27 | COC(=O)[C@@H]1CC2=CC(=O)CC[C@]2(C)[C@@]23O[C@@H]2C[C@@]2(C)[C@@H](CC[C@@]24CCC(=O)O4)[C@H]13 [eplerenone] | 76.3% | -5.28%
28 | COc1ccc(C(=C(c2ccccc2)[N+](=O)[O-])c2ccc(OCCN3CCCC3)cc2)cc1 [nitromifene] | 45.7% | -5.85%
29 | CC(N)CCCC(C)(C)O (stereo unspecified) | 105% | -3.38%
30 | CCCc1nc(C)c2c(=O)nc(-c3cc(S(=O)(=O)N4CCN(CC)CC4)ccc3OCC)[nH]n12 | 98.6% | -5.15%
31 | Nc1cccc(-n2ccccc2=O)c1 [amphenidone] | 73.4% | -8.99%
32 | COCCc1ccc(OCC(O)CNC(C)C)cc1 (stereo unspecified) [metoprolol] | 115% and 95.4% | -2.51% and -4.01%
33 | CO[C@H]1C[C@H](O[C@H]2[C@H](C)[C@@H](O[C@@H]3O[C@H](C)C[C@H](N(C)C)[C@H]3O)[C@@H](C)C[C@@]3(CO3)C(=O)[C@H](C)[C@@H](O)[C@@H](C)[C@@H](C)OC(=O)[C@@H]2C)O[C@@H](C)[C@@H]1O [oleandomycin] | 110% | -5.57%

Random excerpt: 2 compounds from above
Row | SMILES | mCherry [1] | percent effect [2]
26 | CCCCCC(=O)O[C@]1(C(C)=O)CC[C@H]2[C@@H]3CCC4=CC(=O)CC[C@@H]4[C@H]3CC[C@@]21C [gestonorone caproate] | 82.1% | -3.23%
25 | COC(=O)N/N=C/c1c[n+]([O-])c2ccccc2[n+]1[O-] [Carbadox] | 113% | -4.18%
